Our source for the sensitivity and specificity values is patent US7833983B2, “Analytical method and kit thereof” (Phadia, AB, priority 2003, dated 2010).

In this data set the test system is anti-Sm antibodies. The data set is described as follows: Correlation study: anti-S33 ELISA versus commercially available anti-Sm antibody tests. Format: binding, human. As to conditions: 50 SLE sera and 100 controls. As to the method:
Randomly selected SLE sera (n=50) and various controls (n=100) were tested using the commercially available anti-Sm antibody tests from different suppliers (Sm test A—Sm Test D) and the results were compared to the findings of the anti-S33 ELISA test.

In turn, “AARG sdR GRGMGRGNIF (AARGRGRGMGRGNIF; symmetric dimethylarginine at 112; optional C-terminal Cys) [S33, SmD3 aa 108-122 mimotope peptide with a single symmetrical dimethylarginine at position 112; ELISA version with additional C-terminal Cys]” registered a sensitivity of 12% and a specificity of 100%.
